Structures can show the parent of a compound that is named as a salt. At least one compound was matched to its structure with a doubt left.
Tests used:
[1] = Stability of the active principle under conditions of stress; assay type: physicochemical; conditions: whatever the conditions: +4° C. closed bottle, 50° C., 40° C., 30% RH, 75% RH, open bottle
[2] = Physical and pharmacotechnical characteristics of the active principle; assay type: physicochemical; conditions: powder
[3] = Proton-deuterium exchange of the C2 proton by NMR spectroscopy; assay type: physicochemical; conditions: physiological phosphate buffer (pH 7.4), 37° C.
[4] = test system: schizophrenia or schizoaffective disorders; conditions: idazoxan added to the treatment with fluphenazine; cited from earlier work
depression = conditions: 5 to 40 mg, three times a day, over four weeks; cited from earlier work

Question: Which results are given for `c1ccc2c(c1)OCC(C1=NCCN1)O2` (stereo not drawn) [Idazoxan hydrochloride, 2-(2-imidazolinyl)-1,4-benzodioxane hydrochloride]?
Answer: percentage of 791011 [1]: ≤ 0.03%; hygroscopicity [2]: slightly hygroscopic; proton-deuterium exchange of the C2 proton ([3]; after 80 minutes): Approximately 50%; proton-deuterium exchange of the C2 proton ([3]; after 4 hours): virtually complete; symptoms in comparison with a fluphenazine monotherapy [4]: significant reduction; Hamilton scale against placebo (depression): significant improvement

— patent US8476307B2, “Pharmaceutical composition based on idazoxan, salts, hydrates or polymorphs thereof” (Pierre Fabre Medicament, priority 2003, dated 2013)
